Paper PMC6830126
No constants are given. Whether binding was seen depends on the method and setting. Binding seen in cells or lysates may run through a third protein. Some binding calls cover weakened binding; strength is not graded here.

Protein sequences, listed by entry. Tags and fused reporters are not part of them. Residues count along the entry.
UniProt Q5FVQ8, residues 85-973: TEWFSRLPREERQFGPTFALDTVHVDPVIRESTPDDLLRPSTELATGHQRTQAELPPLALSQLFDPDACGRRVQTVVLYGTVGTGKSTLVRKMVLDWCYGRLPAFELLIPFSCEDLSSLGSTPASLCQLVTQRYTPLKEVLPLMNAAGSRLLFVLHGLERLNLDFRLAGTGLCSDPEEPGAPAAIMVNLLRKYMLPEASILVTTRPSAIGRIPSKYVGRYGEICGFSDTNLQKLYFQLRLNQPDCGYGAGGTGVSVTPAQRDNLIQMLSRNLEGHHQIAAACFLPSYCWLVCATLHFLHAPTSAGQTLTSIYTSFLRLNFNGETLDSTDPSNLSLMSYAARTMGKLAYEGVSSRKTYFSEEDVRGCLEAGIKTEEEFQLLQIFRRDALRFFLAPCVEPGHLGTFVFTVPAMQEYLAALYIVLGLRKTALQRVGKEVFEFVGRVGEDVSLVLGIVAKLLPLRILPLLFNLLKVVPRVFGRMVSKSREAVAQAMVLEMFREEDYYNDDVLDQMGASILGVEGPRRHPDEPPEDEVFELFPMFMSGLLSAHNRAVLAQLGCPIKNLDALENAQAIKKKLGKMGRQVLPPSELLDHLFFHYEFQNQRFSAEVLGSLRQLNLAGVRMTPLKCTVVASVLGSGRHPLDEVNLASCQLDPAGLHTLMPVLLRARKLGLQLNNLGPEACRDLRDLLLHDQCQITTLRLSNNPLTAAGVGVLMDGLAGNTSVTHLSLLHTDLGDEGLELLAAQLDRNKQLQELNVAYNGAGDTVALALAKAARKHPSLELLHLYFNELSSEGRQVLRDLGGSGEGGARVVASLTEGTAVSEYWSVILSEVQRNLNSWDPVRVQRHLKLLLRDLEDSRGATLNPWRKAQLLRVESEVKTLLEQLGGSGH
UniProt Q9Z2L0: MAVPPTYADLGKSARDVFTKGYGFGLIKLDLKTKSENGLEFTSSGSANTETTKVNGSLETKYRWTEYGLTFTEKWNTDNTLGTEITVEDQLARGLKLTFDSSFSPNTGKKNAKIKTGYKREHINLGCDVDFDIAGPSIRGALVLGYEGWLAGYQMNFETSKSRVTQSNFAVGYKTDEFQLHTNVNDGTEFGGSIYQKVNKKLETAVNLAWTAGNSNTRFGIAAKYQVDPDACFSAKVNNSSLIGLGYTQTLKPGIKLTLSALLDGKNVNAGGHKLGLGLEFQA
UniProt Q6TMG5: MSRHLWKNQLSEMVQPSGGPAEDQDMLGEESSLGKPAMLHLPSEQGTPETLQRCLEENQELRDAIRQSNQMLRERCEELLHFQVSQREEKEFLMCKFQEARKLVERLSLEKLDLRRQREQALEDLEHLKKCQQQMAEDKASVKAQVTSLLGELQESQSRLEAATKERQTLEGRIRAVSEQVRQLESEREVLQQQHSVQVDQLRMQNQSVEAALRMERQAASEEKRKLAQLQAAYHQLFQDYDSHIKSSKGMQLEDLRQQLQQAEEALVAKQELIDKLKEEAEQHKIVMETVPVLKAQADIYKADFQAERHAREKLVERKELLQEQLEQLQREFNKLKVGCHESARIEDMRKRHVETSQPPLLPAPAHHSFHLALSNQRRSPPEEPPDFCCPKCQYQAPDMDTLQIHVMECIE

T1: MAVS, rat, endogenous (rat (endogenous in PMVECs)) (UniProt Q66HG9)
T1 sequence: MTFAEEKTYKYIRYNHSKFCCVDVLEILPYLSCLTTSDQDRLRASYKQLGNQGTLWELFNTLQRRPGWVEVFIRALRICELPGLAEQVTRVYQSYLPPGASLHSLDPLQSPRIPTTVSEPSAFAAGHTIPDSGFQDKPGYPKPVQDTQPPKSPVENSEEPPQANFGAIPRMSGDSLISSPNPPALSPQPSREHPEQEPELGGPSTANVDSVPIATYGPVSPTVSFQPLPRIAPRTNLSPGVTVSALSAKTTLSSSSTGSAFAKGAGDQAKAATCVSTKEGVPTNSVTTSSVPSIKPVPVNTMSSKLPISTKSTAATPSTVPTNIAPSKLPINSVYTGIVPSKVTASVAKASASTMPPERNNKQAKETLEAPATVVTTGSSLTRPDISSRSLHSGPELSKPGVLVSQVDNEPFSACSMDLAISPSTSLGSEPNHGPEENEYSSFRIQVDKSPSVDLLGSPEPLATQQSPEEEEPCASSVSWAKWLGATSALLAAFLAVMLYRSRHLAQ

T2: TBK1, rat, endogenous (rat (endogenous in PMVECs)) (UniProt D4A7D3)
T2 sequence: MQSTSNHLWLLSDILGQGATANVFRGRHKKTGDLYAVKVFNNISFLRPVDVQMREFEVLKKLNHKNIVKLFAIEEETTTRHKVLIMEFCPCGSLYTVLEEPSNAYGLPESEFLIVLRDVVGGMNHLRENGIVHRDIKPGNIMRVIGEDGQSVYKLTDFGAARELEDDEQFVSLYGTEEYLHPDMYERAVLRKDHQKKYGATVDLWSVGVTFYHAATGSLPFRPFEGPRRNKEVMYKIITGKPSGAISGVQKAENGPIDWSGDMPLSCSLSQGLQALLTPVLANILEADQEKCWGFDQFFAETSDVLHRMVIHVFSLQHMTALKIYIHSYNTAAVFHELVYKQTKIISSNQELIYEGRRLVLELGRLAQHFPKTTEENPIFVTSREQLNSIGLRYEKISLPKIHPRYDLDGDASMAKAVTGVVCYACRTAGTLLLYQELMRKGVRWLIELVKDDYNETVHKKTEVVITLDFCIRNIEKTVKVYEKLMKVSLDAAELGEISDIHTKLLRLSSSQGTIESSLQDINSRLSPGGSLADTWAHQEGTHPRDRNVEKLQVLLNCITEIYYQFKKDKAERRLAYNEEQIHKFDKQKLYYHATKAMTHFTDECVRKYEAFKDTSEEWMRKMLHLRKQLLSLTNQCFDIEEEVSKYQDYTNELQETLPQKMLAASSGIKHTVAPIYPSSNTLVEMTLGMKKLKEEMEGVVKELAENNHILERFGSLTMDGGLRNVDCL

T3: phosphorylated TBK1, rat, endogenous (rat (endogenous in PMVECs)) (UniProt D4A7D3)
T3 sequence (chain, phosphorylated (p-TBK1; site not printed)): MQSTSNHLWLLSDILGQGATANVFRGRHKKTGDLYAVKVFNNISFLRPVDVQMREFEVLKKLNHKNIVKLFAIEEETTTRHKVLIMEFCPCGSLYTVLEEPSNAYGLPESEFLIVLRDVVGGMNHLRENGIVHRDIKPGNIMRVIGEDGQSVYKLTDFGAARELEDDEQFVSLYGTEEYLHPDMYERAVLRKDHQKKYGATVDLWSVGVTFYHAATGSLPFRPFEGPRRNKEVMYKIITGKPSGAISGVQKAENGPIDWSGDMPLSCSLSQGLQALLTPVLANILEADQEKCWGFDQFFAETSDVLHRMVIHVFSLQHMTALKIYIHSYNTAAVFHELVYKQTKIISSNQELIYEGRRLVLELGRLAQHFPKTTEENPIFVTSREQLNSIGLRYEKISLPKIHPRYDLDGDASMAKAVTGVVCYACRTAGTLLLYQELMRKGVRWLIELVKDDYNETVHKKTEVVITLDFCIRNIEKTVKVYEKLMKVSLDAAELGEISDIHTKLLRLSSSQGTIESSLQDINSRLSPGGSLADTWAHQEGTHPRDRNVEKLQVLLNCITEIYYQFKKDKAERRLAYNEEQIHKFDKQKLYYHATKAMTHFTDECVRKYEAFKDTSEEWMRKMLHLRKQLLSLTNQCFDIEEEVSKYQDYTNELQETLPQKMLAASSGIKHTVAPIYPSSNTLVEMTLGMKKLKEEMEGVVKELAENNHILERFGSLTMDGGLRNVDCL


Key:
[1] = biological target: Nucleotide-binding domain and leucine-rich repeat-containing protein X1 (NLRX1), rat, endogenous (rat (endogenous in PMVECs)) (UniProt Q5FVQ8); assay: co-IP; endogenous proteins; immunoprecipitation of NLRX1 from PMVEC lysates, blot for VDAC1 (Supplementary Figure S4); treatment of the cells not given
[2] = biological target: T1, MAVS, rat, endogenous (rat (endogenous in PMVECs)); assay: co-IP; endogenous proteins; rat PMVECs treated with sodium azide for 3 h; lysate in IP lysis buffer (Pierce) with 2 ug primary antibody at 4°C overnight, Protein G-Sepharose or Protein A/G agarose 60 min at 4°C, four washes; western blot; isotype IgG as control
[3] = biological target: T2, TBK1, rat, endogenous (rat (endogenous in PMVECs)); assay: as above
[4] = biological target: T3, phosphorylated TBK1, rat, endogenous (rat (endogenous in PMVECs)); assay: as above
[5] = biological target: Nucleotide-binding domain and leucine-rich repeat-containing protein X1 (NLRX1), rat, endogenous (rat (endogenous in PMVECs)) (UniProt Q5FVQ8); assay: as above
[6] = biological target: Nucleotide-binding domain and leucine-rich repeat-containing protein X1 (NLRX1), rat, endogenous (rat (endogenous in PMVECs)) (UniProt Q5FVQ8); assay: co-IP; as a1, but untreated (vehicle, control) PMVECs; immunoprecipitation with anti-NLRX1 antibody

| Molecule | binding [2] | binding [5] | binding [6] | other results |
| --- | --- | --- | --- | --- |
| VDAC1, rat, endogenous (from UniProt Q9Z2L0 1-283) | – | – | – | binding [1]: no binding |
| Nucleotide-binding domain and leucine-rich repeat-containing protein X1 (NLRX1), rat, endogenous (from UniProt Q5FVQ8 85-973) | binds | – | – | binding [3]: binds; binding [4]: binds |
| NEMO, rat, endogenous (from UniProt Q6TMG5 1-412) | binds | – | – | – |
| TBK1, rat, endogenous (protein, UniProt D4A7D3 1-729) MQSTSNHLWLLSDILGQGATANVFRGRHKKTGDLYAVKVFNNISFLRPVDVQMREFEVLKKLNHKNIVKLFAIEEETTTRHKVLIMEFCPCGSLYTVLEEPSNAYGLPESEFLIVLRDVVGGMNHLRENGIVHRDIKPGNIMRVIGEDGQSVYKLTDFGAARELEDDEQFVSLYGTEEYLHPDMYERAVLRKDHQKKYGATVDLWSVGVTFYHAATGSLPFRPFEGPRRNKEVMYKIITGKPSGAISGVQKAENGPIDWSGDMPLSCSLSQGLQALLTPVLANILEADQEKCWGFDQFFAETSDVLHRMVIHVFSLQHMTALKIYIHSYNTAAVFHELVYKQTKIISSNQELIYEGRRLVLELGRLAQHFPKTTEENPIFVTSREQLNSIGLRYEKISLPKIHPRYDLDGDASMAKAVTGVVCYACRTAGTLLLYQELMRKGVRWLIELVKDDYNETVHKKTEVVITLDFCIRNIEKTVKVYEKLMKVSLDAAELGEISDIHTKLLRLSSSQGTIESSLQDINSRLSPGGSLADTWAHQEGTHPRDRNVEKLQVLLNCITEIYYQFKKDKAERRLAYNEEQIHKFDKQKLYYHATKAMTHFTDECVRKYEAFKDTSEEWMRKMLHLRKQLLSLTNQCFDIEEEVSKYQDYTNELQETLPQKMLAASSGIKHTVAPIYPSSNTLVEMTLGMKKLKEEMEGVVKELAENNHILERFGSLTMDGGLRNVDCL | binds | binds | – | – |
| MAVS, rat, endogenous (protein, UniProt Q66HG9 1-507) MTFAEEKTYKYIRYNHSKFCCVDVLEILPYLSCLTTSDQDRLRASYKQLGNQGTLWELFNTLQRRPGWVEVFIRALRICELPGLAEQVTRVYQSYLPPGASLHSLDPLQSPRIPTTVSEPSAFAAGHTIPDSGFQDKPGYPKPVQDTQPPKSPVENSEEPPQANFGAIPRMSGDSLISSPNPPALSPQPSREHPEQEPELGGPSTANVDSVPIATYGPVSPTVSFQPLPRIAPRTNLSPGVTVSALSAKTTLSSSSTGSAFAKGAGDQAKAATCVSTKEGVPTNSVTTSSVPSIKPVPVNTMSSKLPISTKSTAATPSTVPTNIAPSKLPINSVYTGIVPSKVTASVAKASASTMPPERNNKQAKETLEAPATVVTTGSSLTRPDISSRSLHSGPELSKPGVLVSQVDNEPFSACSMDLAISPSTSLGSEPNHGPEENEYSSFRIQVDKSPSVDLLGSPEPLATQQSPEEEEPCASSVSWAKWLGATSALLAAFLAVMLYRSRHLAQ | – | binds | – | – |
| IKKβ, rat, endogenous (protein, UniProt Q9QY78 1-757) MSWSPSLPTQTCGAWEMKERLGTGGFGNVIRWHNQVTGEQIAIKQCRQELSPKNRDRWCLEIQIMRRLNHPNVVAARDVPEGMQNLAPNDLPLLAMEYCQGGDLRRYLNQFENCCGLREGAILTLLSDIASALRYLHENRIIHRDLKPENIVLQQGEKRLIHKIIDLGYAKELDQGSLCTSFVGTLQYLAPELLEQQKYTVTVDYWSFGTLAFECITGFRPFLPNWQPVQWHSKVRQKSEVDIVVSEDLNGTVKFSSSSPFPNNLNSVLAERLEKWLQLMLTWQPRQRGVDPQYGPNGCFRALDDILNLKLVHILNMVTGTIHTYPVMEDESLQSLKTRIREDTGILETDQELLQEAGLVLLPDKPATQCISDSKTNEGLTLDMDLVFLFDNSKMSYETQITPRPQPESVSCVLQEPKRNLSFFQMRKVWGQVWHSIQTLKEDCNRLQQGQRAAMMNLLRNNSCLSKMKNAMASTAQQLKAKLDFFKTSIQIDLEKYREQTEFGITSDKLLLAWREMEQAVEQCGRENDVKVLVERMMALQTDIVDLQRSPMGRKQGGTLDDLEEQARELYRRLREKPRDQRTEGDSQDMVRLLLQAIQSFEKKVRVIYSQLSKTVVCKQKALELLPKVEEVVRLMNEDEKTVVRLQEKRQKELWNLLKIACSKVRGPVSGSPDSMNVSRLSHPGHLMSQPSSACDSLPDSDKKSEELVAEAHALCSRLESALQDTVKQQDRSFTTLDWSWLQMEDEERCGLEQACD | – | binds | no binding (condition: untreated cells (no sodium azide)) | – |
| STING, rat, endogenous (protein, UniProt F1M391 1-379) MPYSNLHPSIPRPRSYRFKLAAFVLLVGSLMSLWMTGEPPSHTLHYLALHVASQQLGLLLKKLCCLAEELCHVQSRYQGSYWKAVRACVGSPICFMALILLSFYFYCSLENTSDLRLAWHLGILVLSKSLSMTLDLQSLAPAEVSAVCEEKNFNVAHGLAWSYYIGYLKLILPGLQARIRMFNQLHNNMLSGAGSRRLYILFPLDCGVPDDLSVADPNIRFRDMLPQQNTDRAGVKNRAYSNSVYELLENGQPAGACILEYATPLQTLFAMSQDGKAGFSREDRLEQAKLFCRTLEEILADVPESRNHCRLIVYQESEEGNSFSLSQEVLRHIRQEEKEEVTMSGPPTSVAPRPSLLSQEPRLLISGMEQPLPLRTDLI | – | no binding | no binding | – |

Further lines, with some results ahead:

| binding [2] | binding [5] | Molecule | binding [6] | other results |
| --- | --- | --- | --- | --- |
| binds | binds | TRAF6, rat, endogenous (protein, UniProt B5DF45 1-530) MSLLNCENSCASSQSSSDCCAAMANSCSAAMKDDSVSGCVSTGNLSSSFMEEIQGYDVEFDPPLESKYECPICLMALREAVQTPCGHRFCKACITKSIRDAGHKCPVDNEILLENQLFPDNFAKREILSLTVKCPNKGCVQKMELRHLEDHQVHCEFALVICPQCQRFFQKCQINKHIIEDCPRRQVSCVNCAVPMPYEEKEIHDQSCPLANIICEYCGTILIREQMPNHYDLDCPTAPVPCTFSVFGCHEKMQRNHLARHLQENTQLHMRLLAQAVHNVNLSLRPCDASSPSRGCRPEDPNYEETVKQLEGRLVRQDHQIRELTAKMETQSMHVSELKRTIRSLEDKVAEMEAQQCNGIYIWKIGNFGMHLKSQEEERPVVIHSPGFYTGRPGYKLCMRLHLQLPTAQRCANYISLFVHTMQGEYDSHLPWPFQGTIRLTILDQSEAVIRQNHEEVMDAKPELLAFQRPTIPRNPKGFGYVTFMHLEALRQGTFIKDDTLLVRCEVSTRFDMGGLRKEGFQPRSTDAGV | no binding (condition: untreated cells (no sodium azide)) | – |
| – | binds | phosphorylated TBK1, rat, endogenous (protein, UniProt D4A7D3 1-729, phosphorylated (p-TBK1; site not given)) MQSTSNHLWLLSDILGQGATANVFRGRHKKTGDLYAVKVFNNISFLRPVDVQMREFEVLKKLNHKNIVKLFAIEEETTTRHKVLIMEFCPCGSLYTVLEEPSNAYGLPESEFLIVLRDVVGGMNHLRENGIVHRDIKPGNIMRVIGEDGQSVYKLTDFGAARELEDDEQFVSLYGTEEYLHPDMYERAVLRKDHQKKYGATVDLWSVGVTFYHAATGSLPFRPFEGPRRNKEVMYKIITGKPSGAISGVQKAENGPIDWSGDMPLSCSLSQGLQALLTPVLANILEADQEKCWGFDQFFAETSDVLHRMVIHVFSLQHMTALKIYIHSYNTAAVFHELVYKQTKIISSNQELIYEGRRLVLELGRLAQHFPKTTEENPIFVTSREQLNSIGLRYEKISLPKIHPRYDLDGDASMAKAVTGVVCYACRTAGTLLLYQELMRKGVRWLIELVKDDYNETVHKKTEVVITLDFCIRNIEKTVKVYEKLMKVSLDAAELGEISDIHTKLLRLSSSQGTIESSLQDINSRLSPGGSLADTWAHQEGTHPRDRNVEKLQVLLNCITEIYYQFKKDKAERRLAYNEEQIHKFDKQKLYYHATKAMTHFTDECVRKYEAFKDTSEEWMRKMLHLRKQLLSLTNQCFDIEEEVSKYQDYTNELQETLPQKMLAASSGIKHTVAPIYPSSNTLVEMTLGMKKLKEEMEGVVKELAENNHILERFGSLTMDGGLRNVDCL | – | – |
